In PubChem BioAssay AID2551 (National Center for Advancing Translational Sciences (NCATS), 2010):
The whole screen tested about 310,000 compounds, of which about 17,000 (5.5%) were called active. Inconclusive means that the source gave no clear call. Such entries were picked first, then a sample of the others. The call rests on the fitted dose curve; in most records, active means well fitted inhibition curve with a large enough effect; inconclusive means small, poorly fitted or top-dose-only effect, or effect the other way; inactive means no such curve, though single readings can be large or run the other way. Potencies of inconclusive entries are doubtful fits and often do not repeat.

Sequences of proteins named here, by UniProt entry; tags and fusion partners are left off. A change or cut given only in a name is not applied to a line headed by its entry.
UniProt P51450: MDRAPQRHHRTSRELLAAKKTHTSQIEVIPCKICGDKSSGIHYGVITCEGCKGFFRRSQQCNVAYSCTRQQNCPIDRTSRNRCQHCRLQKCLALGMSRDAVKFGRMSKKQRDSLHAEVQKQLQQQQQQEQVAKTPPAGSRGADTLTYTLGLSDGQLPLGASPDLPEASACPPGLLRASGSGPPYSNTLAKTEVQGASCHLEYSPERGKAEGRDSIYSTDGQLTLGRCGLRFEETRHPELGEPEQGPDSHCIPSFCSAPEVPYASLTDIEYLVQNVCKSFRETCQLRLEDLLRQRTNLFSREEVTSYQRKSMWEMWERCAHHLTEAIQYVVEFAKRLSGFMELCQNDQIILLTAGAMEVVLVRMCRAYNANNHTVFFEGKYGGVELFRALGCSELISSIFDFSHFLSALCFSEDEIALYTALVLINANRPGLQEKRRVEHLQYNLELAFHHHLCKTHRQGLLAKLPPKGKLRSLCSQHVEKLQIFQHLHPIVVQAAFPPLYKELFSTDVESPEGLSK

Biological target: Nuclear receptor ROR-gamma (Mus musculus) (UniProt P51450)
Assay: qHTS for inhibitors of ROR gamma transcriptional activity; further: nearly all actives have a fitted effect of over 60% in size
Settings: Drosophila S2 Gal4-RORgamma UAS-luciferase reporter, 20 h; series mostly up to 53.6 µM
In short: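 Stably transfected Drosophila Schneider cells are the test system, with ROR gamma fused to Gal4 and luciferase under UAS control; luminescence is read after 20 hr of 700 uM copper sulfate induction at ambient temperature.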
Potency means the concentration at half of the fitted maximal effect.

Row | SMILES | Potency
1 | O=C(Nc1ccc(OCC(F)(F)C(F)F)cc1)c1ccncc1 | inactive
2 | COCCNc1nnc(SCC(=O)c2c[nH]c3ccccc23)s1 | inconclusive: 35.5 µM [inhibitor, single point]
3 | CC(C)CNC(=S)Nc1ccc(F)cc1 | inconclusive: 11.2 µM [inhibitor, single point]
4 | NC(=O)c1nsc(C(=O)N(Cc2cccnc2)C(C(=O)NCc2ccc(F)cc2)c2ccc(F)cc2)c1N (stereo not given) | inconclusive: 20 µM [activator, single point]
5 | Cc1cc(Nc2ccc(C(C)C)cc2)n2ncnc2n1 | inconclusive: 35.5 µM [inhibitor, single point]
6 | COc1ccc(C(=O)CC(=O)C(=O)Nc2cccc(F)c2)cc1 | active: 7.08 µM
7 | COC(=O)c1scc(C)c1NC(=O)/C=C/C(=O)O | inconclusive: 35.5 µM [inhibitor, single point]
8 | Cc1ccc(O)c(C(=O)/C=C/c2ccc3c(c2)OCCO3)c1 | inconclusive: 35.5 µM [inhibitor, single point]
9 | CCc1ccc(C(=O)NN=C2CCCCCC2)s1 | inconclusive: 0.251 µM [inhibitor, full curve, poor fit]
10 | Cn1nc(-c2ccc3c(c2)OCCO3)c2ccccc2c1=O | inactive
11 | S=C(c1nc2ccccc2[nH]1)N1CCOCC1 | active: 5.01 µM
12 | CC(C)c1nc2scc(-c3ccc(Cl)cc3)c2c(=O)n1N | inconclusive: 35.5 µM [activator, single point]
13 | O=C(O)c1ccc(N2CC3CC(C2)c2cccc(=O)n2C3)c(NC(=S)Nc2ccc(Br)cc2)c1 (stereo not given) | inconclusive: 22.4 µM [inhibitor, single point]
14 | COc1cc(CN(C)Cc2nc3cc(C(F)(F)F)ccc3c(=O)[nH]2)ccc1OC(F)F | inconclusive: 25.1 µM [inhibitor, single point]
15 | O=C(NC1CCCCC1)c1cccc(Cn2cc(Cl)cn2)c1 | inactive
16 | CCN=C(NCC)SC1CC(=O)N(c2ccccc2)C1=O (stereo not given) | inactive
17 | CCOC(=O)c1cc2c(=O)[nH]ccc2nc1C | inconclusive: 1.41 µM [activator, partial curve]
18 | CS(=O)(=O)N1CCC2(CCN(C(c3ccccc3)c3ccccc3)CC2)CC1 | inactive
19 | Cc1nn(-c2ccc(Cl)cc2)c2[nH]c(=O)c(CNCc3ccc4c(c3)OCO4)cc12 | inactive
20 | O=C(N/N=C/c1cn(-c2ccccc2)nc1-c1cccnc1)c1ccccc1 | active: 5.62 µM
21 | CN(c1ccc(C(=O)Nc2ccc3c(c2)OCO3)cc1)S(C)(=O)=O | inactive
22 | COc1ccc(/C=C/C(=O)c2ccc(O)cc2O)cc1OC | active: 2 µM
23 | Cn1c(CC(=O)Nc2ccccc2Cl)nnc1SCC(=O)NC1CCCCC1 | inactive
24 | CCCCCCC(C)n1[nH]c(=O)c2c(C)cc(C)nc21 (stereo not given) | inconclusive: 35.5 µM [activator, single point]
25 | Cc1ccc(-c2nc(N/N=C/c3ccncc3)c3ccccc3n2)cc1 | inconclusive: 6.31 µM [inhibitor, single point]

Of the compounds above, these contain a COOH group.
Row | SMILES | Potency
7 | COC(=O)c1scc(C)c1NC(=O)/C=C/C(=O)O | inconclusive: 35.5 µM [inhibitor, single point]
13 | O=C(O)c1ccc(N2CC3CC(C2)c2cccc(=O)n2C3)c(NC(=S)Nc2ccc(Br)cc2)c1 (stereo not given) | inconclusive: 22.4 µM [inhibitor, single point]

Remaining list, next part:

Row | SMILES | Potency
26 | CN(C)S(=O)(=O)c1ccc(Cl)c(NC(=O)CN2C(=O)NC(C)(C3CC3)C2=O)c1 (stereo not given) | inactive
27 | CCOC(=O)c1cnc(SCC(=O)c2ccc(Cl)cc2)nc1N | inconclusive: 35.5 µM [activator, single point]
28 | Cc1cc(=O)n2cccc(O)c2n1 | active: 0.891 µM
29 | O=C(N/N=C/c1ccco1)c1cc2ccccc2o1 | inconclusive: 35.5 µM [inhibitor, single point]
30 | Cc1cc2cc(C(c3nnnn3Cc3ccco3)N3CCc4ccccc43)c(=O)[nH]c2cc1C (stereo not given) | inactive
31 | COc1ccc(CNc2ccc3c(c2)nc(C)n3C)cc1 | inconclusive: 0.891 µM [activator, full curve]
32 | COc1ccc(C(=O)NC(=S)N2CCOCC2)cc1Br | active: 1.26 µM
33 | COc1cccc2cc(C(C)N(CCCN3CCOCC3)C(=S)Nc3c(C)cccc3C)oc12 (stereo not given) | inconclusive: 22.4 µM [inhibitor, single point]
34 | Clc1cccc2c1CN(C1=NCCN1)C2 | inactive
35 | O=c1c2ccccc2ncn1CCCSc1ccccc1 | inconclusive: 7.08 µM [activator, full curve, poor fit]
36 | CC(C)COc1ccc(C(=O)N/N=C/c2ccoc2)cc1 | active: 17.8 µM
37 | COc1ccc(S(=O)(=O)NCCSc2ccc(Cl)cc2)cc1OC | inconclusive: 31.6 µM [activator, single point]
38 | O=C(Nn1cc(C(=O)N2CCN(c3ccccc3F)CC2)c2ccccc2c1=O)c1cnccn1 | active: 14.1 µM
39 | CSc1nnc(NC(=O)c2nc(S(=O)(=O)Cc3ccccc3F)ncc2Cl)s1 | active: 15.8 µM
40 | COc1ccc(-n2ncc3c2CC(C)(C)CC3NC(=O)CCc2c(C)noc2C)cc1 (stereo not given) | inconclusive: 35.5 µM [activator, single point]
41 | COc1ccc(C(=O)Oc2c(CN3CCOCC3)cc(Cl)c3cccnc23)cc1 | active: 6.31 µM
42 | O=C(O)CCCN1C(=O)/C(=C\C(Cl)=C\c2ccccc2)SC1=S | active: 1.26 µM
43 | CCCCNC(=S)NNC(=O)c1ccncc1 | inconclusive: 3.55 µM [inhibitor, full curve]
44 | Cc1cccc2sc(NC(=O)CCn3cccc3)nc12 | inconclusive: 14.1 µM [activator, single point]
45 | N#C/C(C(=O)Nc1ccc(Cl)cc1)=C(/S)Nc1ccccc1 | inconclusive: 3.98 µM [inhibitor, full curve]
46 | CC(Nc1nc(-c2ccncc2)nc2ccccc12)c1ccccc1 (stereo not given) | inconclusive: 15.8 µM [activator, single point]
47 | CC(=O)c1ccc(N2CCN(C(=O)CCCc3nc4ccccc4s3)CC2)cc1 | inconclusive: 25.1 µM [activator, single point]
48 | CCOC(=O)N1CCN(c2cc(N3CCN(CC)CC3)c(F)cc2[N+](=O)[O-])CC1C (stereo not given) | inconclusive: 20 µM [activator, single point]
49 | CSCCC(=O)Nc1ccc(C(C)=O)cc1 | inactive
50 | COc1ccc(C(=S)N2CCCCC2)cc1Br | inactive
